In patent US20250026779A1 (priority 2023, published 2025):
At least one compound was matched to its structure with a doubt left.

The chains behind the UniProt entries cited, without tags or fusion partners. Where a name states a change or a piece, a line headed by the entry shows the natural chain unless it says otherwise.
UniProt P00573: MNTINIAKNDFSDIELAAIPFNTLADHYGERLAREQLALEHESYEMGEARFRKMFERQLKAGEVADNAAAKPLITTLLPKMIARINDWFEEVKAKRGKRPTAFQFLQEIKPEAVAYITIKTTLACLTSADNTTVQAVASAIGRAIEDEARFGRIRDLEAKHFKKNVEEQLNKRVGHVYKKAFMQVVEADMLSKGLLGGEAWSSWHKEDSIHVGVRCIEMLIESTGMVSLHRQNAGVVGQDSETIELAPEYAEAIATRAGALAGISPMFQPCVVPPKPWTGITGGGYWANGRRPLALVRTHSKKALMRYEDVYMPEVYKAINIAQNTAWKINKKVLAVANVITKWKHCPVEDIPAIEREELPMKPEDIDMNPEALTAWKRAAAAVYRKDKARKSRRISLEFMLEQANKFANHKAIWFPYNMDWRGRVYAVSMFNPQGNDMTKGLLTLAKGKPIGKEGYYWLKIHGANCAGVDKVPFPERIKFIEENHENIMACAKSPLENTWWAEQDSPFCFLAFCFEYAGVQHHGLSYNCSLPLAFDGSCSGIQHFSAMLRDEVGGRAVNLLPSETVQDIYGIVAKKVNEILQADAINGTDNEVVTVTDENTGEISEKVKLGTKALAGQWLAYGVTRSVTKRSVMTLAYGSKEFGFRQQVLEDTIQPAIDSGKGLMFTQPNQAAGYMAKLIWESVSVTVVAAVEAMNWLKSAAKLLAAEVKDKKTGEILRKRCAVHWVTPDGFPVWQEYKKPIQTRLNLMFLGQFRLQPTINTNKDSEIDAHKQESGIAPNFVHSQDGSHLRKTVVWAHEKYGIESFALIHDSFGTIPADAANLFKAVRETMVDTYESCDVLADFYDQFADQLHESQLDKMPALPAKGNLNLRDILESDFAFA

Key:
HEK 293 cells = assay: In vitro expression of Lucia mRNAs containing cap analogs; type: cell-based; conditions: compared with Caps 2 & 3; text does not say in vitro or in vivo (FIGS. 2B, 2C)
[1] = target: T1, HiScribe T7 RNA synthesis kit (IVT reaction, DNA template encoding Lucia) (Escherichia phage T7, UniProt P00573); assay: In vitro transcription (IVT) of mRNAs containing cap analogs: yield / incorporation; type: biochemical; conditions: for IVT yield: compared with Me7G phosphorothioate-modified caps (Caps 2 & 3) (FIG. 2A); for incorporation into IVT: trinucleotide cap modified at the 7G position
T1 construct: purchased New England Biolabs
Procedure: mRNA was transcribed from DNA template encoding Lucia using HiScribe T7 RNA synthesis kit (New England Biolabs, Ipswich, MA, USA). N^1-Methylpseudo-UTP (TniLink, San Diego, CA, USA) was used in replaced of UTP for the reaction. For 5′ capping of the mRNA, the cap analog compounds (e.g., Compounds 1-4) described herein, or CleanCap (TriLink, San Diego, CA, USA), were added to the IVT reaction, as indicated. The reactions were performed for 4 hours at 37° C.
Purification of the transcript was performed by TURBO DNase digestion (ThermoFisher Scientific, Waltham, MA, USA) for 30 min at 37° C. followed by RNAClean XP beads (Beckman Coulter) clean up. The RNA bound beads were washed 3 times with freshly prepared 70% ethanol, air dried for 15 minutes followed by elution in 200 μL of nuclease free water. The purified mRNA was quantified using nanodrop (ThermoFisher Scientific, Waltham, MA, USA) and analyzed using Tapestation (Agilent, Santa Clara, CA, USA).

Compound	expression (HEK 293 cells)	IVT yield [1]	incorporation into IVT [1]
CC[n+]1cn([C@@H]2O[C@H](COP(=O)(O)OP(=O)(O)OP(=O)(O)OC[C@H]3O[C@@H](n4cnc5c(N)ncnc54)[C@H](OC)[C@@H]3O[P@@]([O-])(=S)OC[C@H]3O[C@@H](N4C=NC5C(=O)NC(N)=NC54)[C@H](O)[C@@H]3O)[C@@H](O)[C@H]2O)c2nc(N)[nH]c(=O)c21 (stereo partly drawn) [Compound 3]	superior	similar	successfully incorporated
CC[n+]1cn([C@@H]2O[C@H](COP(=O)(O)OP(=O)(O)OP(=O)(O)OC[C@H]3O[C@@H](n4cnc5c(N)ncnc54)[C@H](OC)[C@@H]3O[P@]([O-])(=S)OC[C@H]3O[C@@H](N4C=NC5C(=O)NC(N)=NC54)[C@H](O)[C@@H]3O)[C@@H](O)[C@H]2O)c2nc(N)[nH]c(=O)c21 (stereo partly drawn) [Compound 4]	superior	similar	successfully incorporated
